# Experimental data as given in the supplement of paper PMC8728848.
# The list shows a part of the results.
# B1: ERGIC1-EDTA (Homo sapiens), Q969X5 (protein)
# chain: MKFLVNVALVFMVVYISYIYAAAHMHHHHHHDYDIPTTENLYFQGSEVVNELYVDDPDKDSGGKIDVSLNISLPNLHCELVGLDIQDEMGRHEVGHIDNSMKIPLNNGAGCRFEGQFSINKVPGNFHVSTHSATAQPQNPDMTHVIHKLSFGDTLQVQNIHGAFNALGGADRLTSNPLASHDYILKIVPTVYEDKSGKQRYSYQYTVANKEYVAYSHTGRIIPAIWFRYDLSPITVKYTE
# Experiments:
# Assay in all cases: glycan array binding signal (z-score within array); higher = stronger binding
# Conditions in all cases: glycan notation: IUPAC condensed, linker removed
# [1] = target: Neu5Ac(a2-6)Gal(b1-4)GlcNAc(b1-2)Man(a1-3)[GlcNAc(b1-4)][Neu5Ac(a2-6)Gal(b1-4)GlcNAc(b1-2)Man(a1-6)]Man(b1-4)GlcNAc(b1-4)GlcNAc
# Procedure, shortened: (§1)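 From the Consortium for Functional Glycomics database, 3228 arrays were curated, keeping only those whose protein sequence was available. Binding is given as a within-array Z-score averaged across arrays sharing a protein sequence and across linkers. Negative Z-scores can be read as non-binding.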
# [2] = target: Neu5Ac(a2-6)Gal(b1-4)GlcNAc(b1-2)Man(a1-3)[Man(a1-6)]Man(b1-4)GlcNAc(b1-4)GlcNAc
# Procedure, shortened: as §1
# [3] = target: Neu5Ac(a2-6)Gal(b1-4)GlcNAc(b1-2)Man(a1-3)[Neu5Ac(a2-3)Gal(b1-4)GlcNAc(b1-2)Man(a1-6)]Man(b1-4)GlcNAc(b1-4)GlcNAc
# Procedure, shortened: as §1
# [4] = target: Neu5Ac(a2-6)Gal(b1-4)GlcNAc(b1-2)Man(a1-3)[Neu5Ac(a2-6)Gal(b1-4)GlcNAc(b1-2)Man(a1-6)]Man(b1-4)GlcNAc(b1-4)GlcNAc
# Procedure, shortened: as §1
# [5] = target: Neu5Ac(a2-6)Gal(b1-4)GlcNAc(b1-2)Man(a1-3)[Neu5Ac(a2-6)Gal(b1-4)GlcNAc(b1-2)Man(a1-6)]Man(b1-4)GlcNAc(b1-4)[Fuc(a1-6)]GlcNAc
# Procedure, shortened: as §1
# [6] = target: Neu5Ac(a2-6)Gal(b1-4)GlcNAc(b1-2)Man(a1-6)Man(b1-4)GlcNAc(b1-4)GlcNAc
# Procedure, shortened: as §1
# [7] = target: Neu5Ac(a2-6)Gal(b1-4)GlcNAc(b1-2)Man(a1-6)[Gal(b1-4)GlcNAc(b1-2)Man(a1-3)]Man(b1-4)GlcNAc(b1-4)GlcNAc
# Procedure, shortened: as §1
# [8] = target: Neu5Ac(a2-6)Gal(b1-4)GlcNAc(b1-2)Man(a1-6)[GlcNAc(b1-2)Man(a1-3)]Man(b1-4)GlcNAc(b1-4)GlcNAc
# Procedure, shortened: as §1
# [9] = target: Neu5Ac(a2-6)Gal(b1-4)GlcNAc(b1-2)Man(a1-6)[Man(a1-3)]Man(b1-4)GlcNAc(b1-4)GlcNAc
# Procedure, shortened: as §1
# [10] = target: Neu5Ac(a2-6)Gal(b1-4)GlcNAc(b1-2)[Neu5Ac(a2-6)Gal(b1-4)GlcNAc(b1-4)]Man(a1-3)[GlcNAc(b1-4)][Neu5Ac(a2-6)Gal(b1-4)GlcNAc(b1-2)[Neu5Ac(a2-6)Gal(b1-4)GlcNAc(b1-6)]Man(a1-6)]Man(b1-4)GlcNAc(b1-4)GlcNAc
# Procedure, shortened: as §1
# [11] = target: Neu5Ac(a2-6)Gal(b1-4)GlcNAc(b1-2)[Neu5Ac(a2-6)Gal(b1-4)GlcNAc(b1-4)]Man(a1-3)[GlcNAc(b1-4)][Neu5Ac(a2-6)Gal(b1-4)GlcNAc(b1-4)Man(a1-6)]Man(b1-4)GlcNAc(b1-4)GlcNAc
# Procedure, shortened: as §1
# [12] = target: Neu5Ac(a2-6)Gal(b1-4)GlcNAc(b1-2)[Neu5Ac(a2-6)Gal(b1-4)GlcNAc(b1-6)]Man(a1-6)[Neu5Ac(a2-6)Gal(b1-4)GlcNAc(b1-2)Man(a1-3)][GlcNAc(b1-4)]Man(b1-4)GlcNAc(b1-4)GlcNAc
# Procedure, shortened: as §1
# [13] = target: Neu5Ac(a2-6)Gal(b1-4)GlcNAc(b1-3)Gal(b1-3)GlcNAc
# Procedure, shortened: as §1
# [14] = target: Neu5Ac(a2-6)Gal(b1-4)GlcNAc(b1-3)Gal(b1-4)GlcNAc
# Procedure, shortened: as §1
# [15] = target: Neu5Ac(a2-6)Gal(b1-4)GlcNAc(b1-3)Gal(b1-4)GlcNAc(b1-2)Man(a1-3)[Neu5Ac(a2-6)Gal(b1-4)GlcNAc(b1-3)Gal(b1-4)GlcNAc(b1-2)Man(a1-6)]GalNAc
# Procedure, shortened: as §1
# [16] = target: Neu5Ac(a2-6)Gal(b1-4)GlcNAc(b1-3)Gal(b1-4)GlcNAc(b1-3)Gal(b1-4)GlcNAc
# Procedure, shortened: as §1
# [17] = target: Neu5Ac(a2-6)Gal(b1-4)GlcNAc(b1-3)Gal(b1-4)GlcNAc(b1-3)Gal(b1-4)GlcNAc(b1-2)Man(a1-3)[Neu5Ac(a2-6)Gal(b1-4)GlcNAc(b1-3)Gal(b1-4)GlcNAc(b1-3)Gal(b1-4)GlcNAc(b1-2)Man(a1-6)]GalNAc
# Procedure, shortened: as §1
# [18] = target: Neu5Ac(a2-6)Gal(b1-4)GlcNAc(b1-3)Gal(b1-4)GlcNAc(b1-3)GalNAc
# Procedure, shortened: as §1
# [19] = target: Neu5Ac(a2-6)Gal(b1-4)GlcNAc(b1-3)Gal(b1-4)GlcNAc(b1-3)[Neu5Ac(a2-6)Gal(b1-4)GlcNAc(b1-3)Gal(b1-4)GlcNAc(b1-6)]GalNAc
# Procedure, shortened: as §1
# [20] = target: Neu5Ac(a2-6)Gal(b1-4)GlcNAc(b1-3)Gal(b1-4)GlcNAc(b1-6)[Gal(b1-3)]GalNAc
# Procedure, shortened: as §1
# [21] = target: Neu5Ac(a2-6)Gal(b1-4)GlcNAc(b1-3)Gal(b1-4)[Fuc(a1-3)]GlcNAc(b1-3)Gal(b1-4)[Fuc(a1-3)]GlcNAc
# Procedure, shortened: as §1
# [22] = target: Neu5Ac(a2-6)Gal(b1-4)GlcNAc(b1-3)GalNAc
# Procedure, shortened: as §1
# [23] = target: Neu5Ac(a2-6)Gal(b1-4)GlcNAc(b1-3)[Neu5Ac(a2-6)Gal(b1-4)GlcNAc(b1-6)]GalNAc
# Procedure, shortened: as §1
# [24] = target: Neu5Ac(a2-6)Gal(b1-4)GlcNAc(b1-6)GalNAc
# Procedure, shortened: as §1
# [25] = target: Neu5Ac(a2-6)Gal(b1-4)GlcNAc(b1-6)[Gal(b1-3)GlcNAc(b1-3)]Gal(b1-4)Glc
# Procedure, shortened: as §1
# [26] = target: Neu5Ac(a2-6)Gal(b1-4)GlcNAc(b1-6)[Gal(b1-3)]GalNAc
# Procedure, shortened: as §1
# [27] = target: Neu5Ac(a2-6)Gal(b1-4)GlcNAc6S
# Procedure, shortened: as §1
# Neu5Ac(a2-6)GalNAc = target: Neu5Ac(a2-6)GalNAc
# Procedure, shortened: as §1
# [28] = target: Neu5Ac(a2-6)GalNAc(b1-4)GlcNAc
# Procedure, shortened: as §1
# [29] = target: Neu5Ac(a2-6)GalNAc(b1-4)GlcNAc6S
# Procedure, shortened: as §1
# [30] = target: Neu5Ac(a2-6)GlcNAc(b1-4)GlcNAc
# Procedure, shortened: as §1
binder,measurement,setting,value
B1,glycan array binding signal (z-score),[1],-1.28
same,glycan array binding signal (z-score),[2],1.69
same,glycan array binding signal (z-score),[3],-1.27
same,glycan array binding signal (z-score),[4],-0.027
same,glycan array binding signal (z-score),[5],2.07
same,glycan array binding signal (z-score),[6],-0.57
same,glycan array binding signal (z-score),[7],0.663
same,glycan array binding signal (z-score),[8],0.274
same,glycan array binding signal (z-score),[9],-0.358
same,glycan array binding signal (z-score),[10],-0.088
same,glycan array binding signal (z-score),[11],-0.499
same,glycan array binding signal (z-score),[12],-0.234
same,glycan array binding signal (z-score),[13],0.896
same,glycan array binding signal (z-score),[14],-0.115
same,glycan array binding signal (z-score),[15],0.213
same,glycan array binding signal (z-score),[16],-0.696
same,glycan array binding signal (z-score),[17],2.02
same,glycan array binding signal (z-score),[18],0.381
same,glycan array binding signal (z-score),[19],0.601
same,glycan array binding signal (z-score),[20],1.47
same,glycan array binding signal (z-score),[21],0.152
same,glycan array binding signal (z-score),[22],-0.625
same,glycan array binding signal (z-score),[23],-1.06
same,glycan array binding signal (z-score),[24],0.124
same,glycan array binding signal (z-score),[25],-0.389
same,glycan array binding signal (z-score),[26],-0.167
same,glycan array binding signal (z-score),[27],-0.225
same,glycan array binding signal (z-score),Neu5Ac(a2-6)GalNAc,0.084
same,glycan array binding signal (z-score),[28],-1.36
same,glycan array binding signal (z-score),[29],0.07
same,glycan array binding signal (z-score),[30],0.54

# Some of the entries so far, as tab-separated lines:
binder	measurement	setting	value
B1	glycan array binding signal (z-score)	[12]	-0.234
same	glycan array binding signal (z-score)	[16]	-0.696
